# PubChem BioAssay AID504808 – Drosophila RNAi Screening Center | 2011
# Assay: 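Fly genes required to hold E2F transcription in check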 (primary screen)
# Cells: Drosophila S2 cells
# Reagent: long dsRNA against Drosophila genes
# Measured: 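Dual luciferase plate measurements; E2F-specific signal taken as firefly over Renilla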
# Scale: E2F firefly: higher = more E2F reporter activity; Renilla normaliser: higher = more normaliser reporter signal
# Hit rule: 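a knock-down counted as active when the firefly/Renilla E2F signal rose above 50%, a threshold chosen arbitrarily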
# The screen tested about 21,000 reagents; shown is an unselected part of those that have a named target and a result. Of all reagents, 18 (0.084%) got an active call. 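Raw counts without plate normalisation, one of two replicates; the ratio scores behind the calls were not deposited.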 Unmarked entries are inactive. A plus sign joins genes that one reagent is predicted to hit. No sequences are given here. The record does not give: the amount of reagent, the time to read-out.
The first 4 records, to show the layout:
target,dsRNA,"E2F firefly, rep 1","Renilla normaliser, rep 1"
CG4984 + CG4975,DRSC06907,1.55e5,5280
CG4984 + CG4975,DRSC06908,73784,3665
CG3306,DRSC10357,79509,3304
uncNacbeta,DRSC00326,1.63e5,5702

The listing, from the start:
target,dsRNA,"E2F firefly, rep 1","Renilla normaliser, rep 1"
CG4984 + CG4975,DRSC06907,1.55e5,5280
CG4984 + CG4975,DRSC06908,73784,3665
CG3306,DRSC10357,79509,3304
uncNacbeta,DRSC00326,1.63e5,5702
GstT2,DRSC06244,1.41e5,4712
Tsp3A,DRSC18656,1.30e5,5245
CG42591,DRSC08905,1.29e5,4442
CG15370,DRSC18042,1.18e5,6645
Invadolysin,DRSC15527,1.35e5,5736
CG2652,DRSC18501,74526,848
CG33061,DRSC09938,1.82e5,7481
RhoGEF3 (retired record),DRSC08266,79590,3487
RhoGEF3 (retired record),DRSC08353,89619,4132
Sytbeta,DRSC10009,1.44e5,8739
Sytbeta,DRSC10351,1.81e5,8312
Ubc87F,DRSC16513,1.24e5,7099
EcR,DRSC04906,1.11e5,5117
EcR,DRSC04910,71338,3260
tant,DRSC11401,86827,3768
Obp46a,DRSC06220,1.49e5,5019
ntc,DRSC08166,75813,3299
ND4 (retired record),DRSC21269,1.40e5,5088
Pglym87,DRSC15252,67544,3820
tyf,DRSC18382,98761,4899
CG7910,DRSC16341,1.48e5,6652
CG13894,DRSC08364,73854,3547
CG13407,DRSC14583,1.51e5,7555
CG5171,DRSC02823,89180,4257
CG15120,DRSC06542,1.33e5,4354
Or59a,DRSC04631,1.02e5,4702
Ptp99A,DRSC13933,79896,3209
Ptp99A,DRSC13939,88074,3232
Ptp99A,DRSC14319,1.34e5,6720
Ptp99A,DRSC14320,1.28e5,5901
Ptp99A,DRSC16803,1.33e5,6166
